± gives the standard deviation. The list shows a part of the results. Many of these values have a large error.
Tested on: EfPiwi piRISC loaded with L1MC piRNA (26 nt)
Assay: pre-steady-state target cleavage rate (min^-1); guide: L1MC piRNA 5'p-UAACUAAAUACUAUGCAAGCUGUAGG; MIWI and MILI are mouse PIWI proteins and EfPiwi is from a freshwater sponge; tags in brackets are library labels; higher = faster piRNA-guided slicing of the target
Conditions: auxiliary factor: 500 nM Ephydatia muelleri Gtsf1
Description: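 Cleave-'n-Seq: a library of target RNAs (target site in constant flanks) at […] was incubated with 1 nM active freshwater sponge Ephydatia fluviatilis Piwi piRISC (synthetic 5'-monophosphorylated piRNA guide) with or without 500 nM EmGtsf1 at 33 °C for 1 min to 16 h. Uncleaved targets were sequenced and the pooled three trials fitted to a burst-and-steady-state model to give the pre-steady-state cleavage rate (min^-1). Sequence is the target site only. Fits with R² ≤ 0 are excluded.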

Sequence | pre-steady-state target cleavage rate
UCCUCCUACAGCAACCAUAGUAUUUACAAA | 0.000997 ± 0.0082
UCCUGGAUGUGCUUGCAUAGUAUUAUCAAA | 0.00049 ± 0.0046
UCCUGGAUGAGCUUCCAUAGUAUUUACAAA | 0.000774 ± 0.0034
UCCUGGAUGUCGAACGUAUGUUUUUUGUUA | 0.000297 ± 0.018
UCCUGGAUGAGCUUGCAUAGUAUAAAGUUA | 0.00848 ± 0.0042
UCCUGCAACAGGUUGCAUAGUAUUUAGUUA | 0.018 ± 0.0035
UCCUGGAUGUCGUUGCAUAGUUAUUUAGUUA | 0.000386 ± 0.011
UCCUGGUACAGCUUGCAUAGAAUUUUCAAA | 0.000658 ± 0.015
UCCUGGAACAGGUUGCAUAGUAUUAAGUUA | 0.00329 ± 0.0021
UCCUGGAUCAGCUUGCAAAGAAUUUAGUUA | 0.000593 ± 0.007
UCCUGGAUGUCGAUCCAUAGUUUUUAGUUA | 0.000108 ± 0.027
UCCUCCUACAGCUUGGAUAGUAUUUAGAUA | 0.00474 ± 0.0018
UCCUGGAUCAGCUUGCGAUAGUAUUUAGUUA | 0.00281 ± 0.0027
UCCUGGAUGAGCUUGCAAUAGUAUUUAGUUA | 0.00597 ± 0.003
UCCUCCUACAGGUAGCAUAGUAUUUAGUUA | 0.0265 ± 0.006
UCCUGGUAGAGCUUGCAUAGUAUUUAGUUA | 0.0138 ± 0.0044
UCCUGGAACAGCUUGCAUACUAUUUACAAA | 0.0021 ± 0.0033
UCCUGGAACAGCUUGCAAUAGUAUUUAGUUA | 0.0183 ± 0.0054
UCCUGGUACAGCUUGCAUAUGUAUUUAGUUA | 0.000956 ± 0.011
UCCUGGAUGAGCUUGCAUAGUAUUUAGAUA | 0.00326 ± 0.0019
UCCUCCUACAGCUUGCAUAGUUUUAAGUUA | 0.00431 ± 0.0024
UCCUGGAUGUCCUUGCAUAGUAUUCAGUUA | 0.000889 ± 0.0035
UCCUGGAACAGCUUGCAUAGUAUUUACUUA | 0.00514 ± 0.0038

Same assay, conditions: auxiliary factor: none (no Gtsf1)

Sequence | pre-steady-state target cleavage rate
UCCUCCUACAGCAACCAUAGUAUUUACAAA | 0.000184 ± 0.032
UCCUGGAUGAGCUUCCAUAGUAUUUACAAA | 0.000348 ± 0.022
UCCUGGAUGAGCUUGCAUAGUAUAAAGUUA | 0.00076 ± 0.01
UCCUGCAACAGGUUGCAUAGUAUUUAGUUA | 0.000158 ± 0.029
UCCUGGAUGAGCUUGCAAAGUAUUUAGUUA | 0.00139 ± 0.0062
UCCUGGUACAGCUUGCAUAGAAUUUUCAAA | 0.000114 ± 0.044
UCCUGGAACAGGUUGCAUAGUAUUAAGUUA | 0.000662 ± 0.011
UCCUGGAUGUCGAACGUAUCUAUUUGUUA | 0.000131 ± 0.037
UCCUGGAUCAGCUUGCGAUAGUAUUUAGUUA | 0.000452 ± 0.013
UCCUGGAUGAGCUUGCAAUAGUAUUUAGUUA | 0.002 ± 0.006
UCCUGGUAGAGCUUGCAUAGUAUUUAGUUA | 0.000622 ± 0.02
UCCUGGAACAGCUUGCAUACUAUUUACAAA | 0.000302 ± 0.021
UCCUGGAACAGCUUGCAAUAGUAUUUAGUUA | 0.00109 ± 0.0075
UCCUGGUACAGCUUGCAUAUGUAUUUAGUUA | 0.000304 ± 0.03
UCCUGGAUGAGCUUGCAUAGUAUUUAGAUA | 0.00141 ± 0.0058
UCCUCCUACAGCUUGCAUAGUUUUAAGUUA | 0.000916 ± 0.0069
UCCUGGAUGUCCUUGCAUAGUAUUCAGUUA | 0.000121 ± 0.022
